Measured values as given in US20250283871A1, “COMPOSITIONS AND METHODS FOR MODULATING THE INTERACTION BETWEEN SS18-SSX FUSION ONCOPROTEIN AND NUCLEOSOMES” (Dana-Farber Cancer Institute, Inc., priority 2020, published 2025).

System: BAF complex subunits and histone proteins
Experiment: Mass spectrometry proteomics of purified HA-SS18 WT and HA-SS18-SSX1 complexes (Tables 5A-5E)
Set-up: species or system human
Details: for Total / Unique: HA-SS18SSX1_CHR_peptides; for Total: total peptides of the identified protein; for Unique: unique peptides of the identified protein
[1] = HA-SS18SSX1 purification, NE (soluble nuclear extract) fraction, HEK-293T, peptides per identified protein
[2] = HA-SS18WT_NE_peptides: HA-SS18 WT complexes purified from nuclear extract (NE), HEK-293T, label = protein identified (Gene Symbol)
[3] = HA-SS18WT_NE_peptides: proteins co-purified with HA-SS18 WT from nuclear extract (NE), HEK-293T
[4] = HA-SS18SSX1_NE_peptides: protein co-purified with HA-SS18-SSX1 BAF complexes from soluble nuclear extract (NE), HEK-293T cells
[5] = HA-SS18SSX1_CHR_peptides: protein identified in the HA-SS18-SSX1 purification from solubilized chromatin (CHR), HEK-293T
[6] = HA-SS18WT_CHR_peptides: HA-SS18 WT purification from nuclease-treated solubilized chromatin (CHR), HEK-293T, label = protein identified
[7] = HA-SS18WT_CHR_peptides: protein identified in HA-SS18 WT BAF complex purification from nuclease-treated solubilized chromatin (CHR), HEK-293T
[8] = HA-SS18SSX1_CHR_peptides: proteins found in HA-SS18-SSX1 BAF complex purification from solubilized chromatin (CHR), HEK-293T
[9] = HA-SS18SSX1_NE_peptides (Table 5B), HA-SS18-SSX1 BAF complex purification from soluble nuclear extract, HEK-293T

Substance: GLUD1
- Total (total peptides) [1]: 4
- Unique (unique peptides) [1]: 4
- Total (peptides) [2]: 5
- Unique (peptides) [2]: 5

Substance: GPATCH8
- Total: 3
- Unique: 3

Substance: GRWD1
- Total (peptides) [3]: 1
- Unique (peptides) [3]: 1

Substance: GTPBP3
- Total (peptides) [4]: 1
- Unique (peptides) [4]: 1

Substance: H2AFY
- Total (total peptides) [5]: 20
- Unique (unique peptides) [5]: 14
- Total (total peptides) [1]: 6
- Unique (unique peptides) [1]: 6
- Total (peptides) [6]: 9
- Unique (peptides) [6]: 9

Substance: H2AFY2
- Total (total peptides) [5]: 15
- Unique (unique peptides) [5]: 13
- Total (peptides) [6]: 8
- Unique (peptides) [6]: 6

Substance: HADHA
- Total (total peptides) [1]: 16
- Unique (unique peptides) [1]: 13
- Total (total peptides) [7]: 1
- Unique (unique peptides) [7]: 1
- Total (peptides) [2]: 12
- Unique (peptides) [2]: 11

Substance: HAX1
- Total (peptides) [4]: 2
- Unique (peptides) [4]: 2
- Total (peptides) [2]: 3
- Unique (peptides) [2]: 3

Substance: HBB [listing 1 of 2 here]
- Total (peptides) [4]: 1
- Unique (peptides) [4]: 1

Substance: HBB [listing 2 of 2 here]
- Total (peptides) [8]: 1
- Unique (peptides) [8]: 1
- Total (total peptides) [7]: 1
- Unique (unique peptides) [7]: 1
- Total (peptides) [3]: 1
- Unique (peptides) [3]: 1

Substance: HDAC2
- Total: 3
- Unique: 3
- Total (total peptides) [7]: 2
- Unique (unique peptides) [7]: 2

Substance: HDGFL2
- Total (total peptides) [5]: 5
- Unique (unique peptides) [5]: 3
- Total (total peptides) [7]: 1
- Unique (unique peptides) [7]: 1

Substance: HEATR1
- Total (total peptides) [5]: 31
- Unique (unique peptides) [5]: 31
- Total: 1
- Unique: 1
- Total (total peptides) [1]: 3
- Unique (unique peptides) [1]: 3
- Total (peptides) [6]: 25
- Unique (peptides) [6]: 25
- Total (total peptides) [7]: 1
- Unique (unique peptides) [7]: 1
- Total (peptides) [2]: 3
- Unique (peptides) [2]: 3

Substance: HIST1H1A [listing 1 of 2 here]
- Total (peptides) [9]: 1
- Unique (peptides) [9]: 1

Substance: HIST1H1A [listing 2 of 2 here]
- Total (total peptides) [5]: 11
- Unique (unique peptides) [5]: 2
- Total (peptides) [6]: 3
- Unique (peptides) [6]: 2

Substance: HIST1H1C
- Total (total peptides) [5]: 11
- Unique (unique peptides) [5]: 4
- Total (peptides) [6]: 7
- Unique (peptides) [6]: 4

Substance: HNRNPU
- Total (total peptides) [5]: 55
- Unique (unique peptides) [5]: 21
- Total (total peptides) [1]: 3
- Unique (unique peptides) [1]: 3
- Total (peptides) [6]: 27
- Unique (peptides) [6]: 17
- Total (peptides) [2]: 3
- Unique (peptides) [2]: 3

Substance: HOXD13
- Total: 3
- Unique: 3
- Total (total peptides) [7]: 2
- Unique (unique peptides) [7]: 2

Substance: HSP90AB2P
- Total (peptides) [8]: 1
- Unique (peptides) [8]: 1
- Total (total peptides) [7]: 1
- Unique (unique peptides) [7]: 1

Substance: HSPA1B
- Total: 2
- Unique: 2
- Total (total peptides) [1]: 4
- Unique (unique peptides) [1]: 4
- Total (total peptides) [7]: 1
- Unique (unique peptides) [7]: 1
- Total (peptides) [2]: 4
- Unique (peptides) [2]: 4

Substance: HSPA1L
- Total: 3
- Unique: 3
- Total (total peptides) [1]: 5
- Unique (unique peptides) [1]: 4
- Total (total peptides) [7]: 1
- Unique (unique peptides) [7]: 1
- Total (peptides) [2]: 6
- Unique (peptides) [2]: 6

Substance: HSPA2 [listing 1 of 2 here]
- Total (peptides) [4]: 1
- Unique (peptides) [4]: 1

Substance: HSPA2 [listing 2 of 2 here]
- Total (peptides) [8]: 1
- Unique (peptides) [8]: 1
- Total (total peptides) [7]: 1
- Unique (unique peptides) [7]: 1
- Total (peptides) [3]: 2
- Unique (peptides) [3]: 2

Substance: HSPA5
- Total: 3
- Unique: 3
- Total (total peptides) [1]: 21
- Unique (unique peptides) [1]: 14
- Total (peptides) [6]: 4
- Unique (peptides) [6]: 4
- Total (peptides) [2]: 19
- Unique (peptides) [2]: 14

Substance: HSPA8
- Total: 4
- Unique: 4
- Total (total peptides) [1]: 9
- Unique (unique peptides) [1]: 8
- Total (peptides) [2]: 8
- Unique (peptides) [2]: 7

Substance: HSPA9
- Total: 2
- Unique: 2
- Total (total peptides) [1]: 20
- Unique (unique peptides) [1]: 15
- Total (total peptides) [7]: 1
- Unique (unique peptides) [7]: 1
- Total (peptides) [2]: 16
- Unique (peptides) [2]: 14

Substance: HSPB1
- Total (peptides) [4]: 3
- Unique (peptides) [4]: 2
- Total (total peptides) [7]: 2
- Unique (unique peptides) [7]: 2

Substance: ICMT [listing 1 of 2 here]
- Total (peptides) [9]: 1
- Unique (peptides) [9]: 1

Substance: ICMT [listing 2 of 2 here]
- Total (peptides) [3]: 1
- Unique (peptides) [3]: 1

Substance: IDH3B
- Total (total peptides) [1]: 4
- Unique (unique peptides) [1]: 4
- Total (peptides) [2]: 4
- Unique (peptides) [2]: 4

Substance: IGKC
- Total (total peptides) [7]: 1
- Unique (unique peptides) [7]: 1

Substance: IMP3
- Total: 2
- Unique: 2
- Total (total peptides) [7]: 2
- Unique (unique peptides) [7]: 2

Substance: INCENP
- Total (total peptides) [5]: 7
- Unique (unique peptides) [5]: 7
- Total (peptides) [6]: 5
- Unique (peptides) [6]: 5

Substance: INTS1
- Total (total peptides) [5]: 4
- Unique (unique peptides) [5]: 4
- Total (total peptides) [7]: 1
- Unique (unique peptides) [7]: 1
- Total (peptides) [2]: 3
- Unique (peptides) [2]: 3

Substance: INTS4
- Total (total peptides) [1]: 4
- Unique (unique peptides) [1]: 4
- Total (total peptides) [7]: 2
- Unique (unique peptides) [7]: 2
- Total (peptides) [3]: 1
- Unique (peptides) [3]: 1

Substance: INTS5
- Total (peptides) [4]: 1
- Unique (peptides) [4]: 1

Substance: INTS6
- Total (total peptides) [1]: 3
- Unique (unique peptides) [1]: 3
- Total (peptides) [3]: 1
- Unique (peptides) [3]: 1

Substance: INTS8
- Total (peptides) [8]: 1
- Unique (peptides) [8]: 1
- Total (peptides) [4]: 1
- Unique (peptides) [4]: 1
- Total (total peptides) [7]: 1
- Unique (unique peptides) [7]: 1
- Total (peptides) [3]: 1
- Unique (peptides) [3]: 1

Substance: INTS11
- Total (peptides) [4]: 2
- Unique (peptides) [4]: 2
- Total (peptides) [3]: 2
- Unique (peptides) [3]: 2

Substance: IQGAP3
- Total (peptides) [4]: 1
- Unique (peptides) [4]: 1

Substance: JUN
- Total: 1
- Unique: 1
- Total (peptides) [4]: 2
- Unique (peptides) [4]: 2
- Total (peptides) [6]: 4
- Unique (peptides) [6]: 4
- Total (peptides) [3]: 2
- Unique (peptides) [3]: 2

Substance: KAT6A
- Total (total peptides) [5]: 10
- Unique (unique peptides) [5]: 10
- Total (peptides) [6]: 5
- Unique (peptides) [6]: 4

Substance: KAT6B
- Total (total peptides) [5]: 5
- Unique (unique peptides) [5]: 4
- Total (total peptides) [7]: 1
- Unique (unique peptides) [7]: 1
